Assay [1] concerns the target T1, AtSPL5 ZnF domain R121A (Arabidopsis thaliana) (UniProt Q9S758).
T1 sequence: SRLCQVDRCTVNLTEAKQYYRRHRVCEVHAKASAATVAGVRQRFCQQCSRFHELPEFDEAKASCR
The assay can be described thus: condition: 660 μM ~ 700 μM titrated into 40 μM to 50 μM; ITC; MicroCal PEAQ-ITC, 16 °C, 20 mM Tris-HCl pH 7.5, 150 mM NaCl; 660-700 μM protein injected into 40-50 μM protein in the cell; SAP05 titrated to the transcription factor; one-site model; both purified.

Assay [2] addresses T2, AtSPL5 ZnF domain Y78A (Arabidopsis thaliana) (UniProt Q9S758).
T2 sequence: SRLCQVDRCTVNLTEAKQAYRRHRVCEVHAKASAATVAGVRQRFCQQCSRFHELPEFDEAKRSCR
The description is as above.

The target in assay [3] is T3, AtSPL5 ZnF domain Y79A (Arabidopsis thaliana) (UniProt Q9S758).
T3 sequence: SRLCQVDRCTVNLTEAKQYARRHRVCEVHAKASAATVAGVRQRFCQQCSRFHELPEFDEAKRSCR
Described as above.

Assay [4] concerns the target GST-tagged OY-M SAP05 (onion yellows phytoplasma (OY-M; Candidatus Phytoplasma asteris)). The assay can be described thus: pull-down; about 200 μg purified GST-fused protein on GST beads, equal amount of target protein, 1 h, 4 °C; 20 mM Tris-HCl, 400 mM NaCl; glutathione elution, Coomassie staining; both purified.

Results are given in words; binding and its absence hold for the method and conditions named.

As for “OY-M SAP05 (residues 33-135) (domain or fragment)”, the binding entry in assay [1], in assay [2] and in assay [3] was “no binding” each time.

B1: human RPN10 vWA domain 38HS39 > GA (domain or fragment, UniProt Q5VWC4 2-193)
chain: VLESTMVCVDNSEYMRNGDFLPTRLQAQQDAVNIVCGAKTRSNPENNVGLITLANDCEVLTTLTPDTGRILSKLHTVQPKGKITFCTGIRVAHLALKHRQGKNHKMRIIAFVGSPVEDNEKDLVKLAKRLKKEKVNVDIINFGEEEVNTEKLTAFVNTLNGKDGTGSHLVTVPPGPSLADALISSPILAGEG
B1: the binding entry in assay [4] is on record as “no binding”.

B2: human RPN10 vWA domain 38HS39 > GA and T68L (domain or fragment, UniProt Q5VWC4 2-193)
chain: VLESTMVCVDNSEYMRNGDFLPTRLQAQQDAVNIVCGAKTRSNPENNVGLITLANDCEVLTTLTPDLGRILSKLHTVQPKGKITFCTGIRVAHLALKHRQGKNHKMRIIAFVGSPVEDNEKDLVKLAKRLKKEKVNVDIINFGEEEVNTEKLTAFVNTLNGKDGTGSHLVTVPPGPSLADALISSPILAGEG
As for B2, the binding entry in assay [4] is “no binding”.

B3: AtSPL5 ZnF domain R121A (domain or fragment, UniProt Q9S758 60-124)
chain: SRLCQVDRCTVNLTEAKQYYRRHRVCEVHAKASAATVAGVRQRFCQQCSRFHELPEFDEAKASCR
Turning to B3, the binding entry in assay [4] is reported as “no binding”.

B4: AtSPL5 ZnF domain Y78A (domain or fragment, UniProt Q9S758 60-124)
chain: SRLCQVDRCTVNLTEAKQAYRRHRVCEVHAKASAATVAGVRQRFCQQCSRFHELPEFDEAKRSCR
On to B4, for which the binding result in assay [4] was “no binding”.

B5: AtSPL5 ZnF domain Y79A (domain or fragment, UniProt Q9S758 60-124)
chain: SRLCQVDRCTVNLTEAKQYARRHRVCEVHAKASAATVAGVRQRFCQQCSRFHELPEFDEAKRSCR
On to B5, for which the binding result in assay [4] was “no binding”.

Values taken from paper PMC10850148.
